Results deposited as PubChem BioAssay AID1508597 (Cure First, 2020)
Test: 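Survival screen with siRNA in ovarian cancer cells derived from patients, with or without rucaparib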 (primary screen). Cell system: human ovarian carcinoma lines grown from tumours: OCI-P5x (papillary serous) and OCI-C5x (clear cell). Reagent: siRNA pool against human genes, 1.25 pmol siRNA per well. Timing: 72 h or 96 h, depending on the cell culture. Treatment: rucaparib 20 µM (about IC30) or vehicle, present until read-out. Rucaparib or vehicle: Rucaparib. Cell line: OCI-P5x (serous). Measured: 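Luminescent ATP-based viability assay read 72 or 96 h after transfection, depending on culture, given as normalised percent viability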. Reading the numbers: viability, normalised: higher = more viable cells remaining. Rule for the call: 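Active when normalised viability falls below 80 percent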. Meaning of the calls: active = viability under 80%; inactive = viability 80% or more.
Shown is an unselected part of the about 2,100 reagents, in one setting of the screen. 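Calls flag viability under 80% in either arm, not effects specific to rucaparib; the reference for percent is not stated.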 Unmarked entries are inactive. Some reagents were tested in more than one well and are listed for each. Reagent sequences are not shown. Not given: the 100% reference.

target | PubChem SID | technical replicate | viability, normalised (%)
SOX15 | SID405527358 | 1 | 44.9 (active)
SOX15 | SID405527358 | 2 | 56 (active)
SOX15 | SID405527358 | 3 | 69 (active)
CDKL3 | SID405527816 | 1 | 116
CDKL3 | SID405527816 | 2 | 92.9
CDKL3 | SID405527816 | 3 | 87.6
CHIC1 | SID405528109 | 1 | 55.9 (active)
CHIC1 | SID405528109 | 2 | 50.9 (active)
CHIC1 | SID405528109 | 3 | 52.4 (active)
CLU | SID405528145 | 1 | 67 (active)
CLU | SID405528145 | 2 | 80.4
CLU | SID405528145 | 3 | 61.1 (active)
NDEL1 | SID405527067 | 1 | 41.5 (active)
NDEL1 | SID405527067 | 2 | 46.2 (active)
NDEL1 | SID405527067 | 3 | 40 (active)
CDK2 | SID405526471 | 1 | 50.4 (active)
CDK2 | SID405526471 | 1 | 98.4
CDK2 | SID405526471 | 2 | 130
CDK2 | SID405526471 | 2 | 62.8 (active)
CDK2 | SID405526471 | 3 | 96.7
CDK2 | SID405526471 | 3 | 58.4 (active)
MAP4K3 | SID405527486 | 1 | 123
MAP4K3 | SID405527486 | 2 | 102
MAP4K3 | SID405527486 | 3 | 88.1
FBXO11 | SID405526781 | 1 | 43.6 (active)
FBXO11 | SID405526781 | 2 | 54 (active)
FBXO11 | SID405526781 | 3 | 67 (active)
FMR1 | SID405526788 | 1 | 85.1
FMR1 | SID405526788 | 2 | 69.1 (active)
FMR1 | SID405526788 | 3 | 74.9 (active)
SMARCD1 | SID405527334 | 1 | 66.6 (active)
SMARCD1 | SID405527334 | 2 | 63.1 (active)
SMARCD1 | SID405527334 | 3 | 59.8 (active)
NSD1 | SID405527095 | 1 | 55.8 (active)
NSD1 | SID405527095 | 2 | 52.8 (active)
NSD1 | SID405527095 | 3 | 51.8 (active)
ACTL6B | SID405527947 | 1 | 71.6 (active)
ACTL6B | SID405527947 | 2 | 66.6 (active)
ACTL6B | SID405527947 | 3 | 54.6 (active)
